The other results are listed elsewhere or left out. Shown are side measurements of this screen, not its main read-out; they come without a call. Most of these compounds were active or inconclusive in the main read-out, so they are no random draw. Potencies come from curve fits of mixed quality, noted in brackets.
Experiment: qHTS Assay to Find Inhibitors of Chronic Active B-Cell Receptor Signaling
Settings: ABC-DLBCL IkBa-CBG/CBR reporter, luminescence ratio (green luciferase fused to IkBa over red control in TMD8 lymphoma cells), 4 h
How it was run: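 TMD8 human ABC-DLBCL cells with doxycycline-inducible IκBα–green luciferase fusion and unfused red luciferase, in 0.5% FBS medium; compounds up to 46 uM, 4 h at 37C. Green/red luminescence ratio, filter-overlap corrected, fitted to concentration-response curves.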

[1] = measured here: CBR red luminescence, cell number
[2] = measured here: IkBa-CBG green luminescence

Row | SMILES | AC50 [1] | AC50 [2]
1 | O=C(O)CCc1ccc(-c2cccs2)n1-c1ccc(C(=O)O)cc1 | 35.5 µM [falling, single point] | 
2 | O=C(CN(C(=O)CNC(=O)c1cccs1)c1ccccc1F)NC1CCCCC1 | 15.8 µM [falling, partial curve, poor fit] | 
3 | O=[N+]([O-])c1ccc2nc(-c3ccccn3)[nH]c2c1 | 35.5 µM [falling, single point] | 
4 | O=C1C(Cl)=C(NCc2cccnc2)C(=O)c2ccccc21 | 35.5 µM [falling, single point] | 20 µM [rising, single point]
5 | COc1cc(OC)cc(C(=O)N2CC(=O)Nc3ccccc32)c1 | 0.501 µM [rising, full curve, poor fit] | 22.4 µM [falling, partial curve, poor fit]
6 | CC(C)c1ccc(NC(=O)C2CCCCN2S(=O)(=O)c2ccccc2)cc1 (stereo not given) | 2.06 µM [rising, partial curve, poor fit] | 
7 | COc1cc(-c2nc3cnccn3c2NC(C)(C)CC(C)(C)C)ccc1O |  | 3.55 µM [falling, partial curve, poor fit]
8 | COc1cc(NC(=O)c2c(OC)cccc2OC)ccc1NC(=O)c1cc2ccccc2o1 | 14.1 µM [rising, partial curve, poor fit] | 
9 | COC(=O)C1CCCN1C(=O)COc1ccc(Cl)cc1Br (stereo not given) | 29.1 µM [rising, single point] | 
10 | CCc1ccccc1NC(=O)CSc1nnc([C@@H]2CCCN2C(=O)OC(C)(C)C)o1 | 22.4 µM [falling, single point] | 28.2 µM [rising, partial curve, poor fit]
11 | Cc1nc2ccccc2c2oc(C(=O)NCCCN3CCCC(C)C3)cc12 (stereo not given) | 35.5 µM [falling, single point] | 
12 | CCN(CC)CCCN=C1N[C@@H](c2cccc(C(F)(F)F)c2)C(C(=O)OC)=C(C)N1CC | 16.4 µM [falling, partial curve] | 
13 | Cc1ccc(NC(=O)c2cc(C)n(-c3ccccc3)c2C)cc1 | 6.51 µM [falling, partial curve, poor fit] | 
14 | Cc1nc(NCc2ccco2)c2c(C)c(C)sc2n1 | 32.6 µM [falling, single point] | 16.4 µM [rising, partial curve, poor fit]
15 | CC(=O)Nc1ccc(C2=NNC(=Nc3ccc(S(=O)(=O)N4CCOCC4)cc3)SC2)cc1 | 6.31 µM [rising, full curve, poor fit] | 
16 | O=C(OCC1COc2ccccc2O1)c1c(F)cccc1F (stereo not given) | 3.16 µM [rising, full curve] | 

Two of the compounds above, as comma-separated lines:
Row,SMILES,AC50 [1],AC50 [2]
1,O=C(O)CCc1ccc(-c2cccs2)n1-c1ccc(C(=O)O)cc1,"35.5 µM [falling, single point]",
8,COc1cc(NC(=O)c2c(OC)cccc2OC)ccc1NC(=O)c1cc2ccccc2o1,"14.1 µM [rising, partial curve, poor fit]",
